In paper PMC10570377, “DARPins detect the formation of hetero-tetramers of p63 and p73 in epithelial tissues and in squamous cell carcinoma” (Cell Death & Disease, 2023) one finds binding data, which are given here for two molecules.

Protein sequences, listed by entry. Tags and fused reporters are not part of them. Lines headed by an entry give the natural chain unless they say otherwise; changes in a name come on top.
UniProt O88898: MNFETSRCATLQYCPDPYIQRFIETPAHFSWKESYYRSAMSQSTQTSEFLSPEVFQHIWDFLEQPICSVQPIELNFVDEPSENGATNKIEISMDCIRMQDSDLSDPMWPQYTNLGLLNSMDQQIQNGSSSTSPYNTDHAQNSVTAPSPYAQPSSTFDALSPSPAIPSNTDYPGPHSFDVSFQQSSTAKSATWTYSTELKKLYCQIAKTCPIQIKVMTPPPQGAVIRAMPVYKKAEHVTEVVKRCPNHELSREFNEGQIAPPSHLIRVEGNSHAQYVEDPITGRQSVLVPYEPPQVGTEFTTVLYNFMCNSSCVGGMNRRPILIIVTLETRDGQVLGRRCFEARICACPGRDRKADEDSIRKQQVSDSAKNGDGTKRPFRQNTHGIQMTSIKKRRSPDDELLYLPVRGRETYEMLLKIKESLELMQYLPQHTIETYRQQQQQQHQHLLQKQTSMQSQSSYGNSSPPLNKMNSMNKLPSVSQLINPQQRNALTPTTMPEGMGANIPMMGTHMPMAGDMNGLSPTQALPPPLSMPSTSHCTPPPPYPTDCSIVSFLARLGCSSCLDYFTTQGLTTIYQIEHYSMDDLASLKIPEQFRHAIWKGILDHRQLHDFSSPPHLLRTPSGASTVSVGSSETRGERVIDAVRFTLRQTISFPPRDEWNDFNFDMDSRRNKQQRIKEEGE

No constants are given. Whether binding was seen depends on the method and setting. Binding seen in cells or lysates may run through a third protein. Binding can be weak; no strength is given.

Assay [1] concerns the target T1, p73 (endogenous, mouse) (mouse (endogenous in skin and lung tumours)) (UniProt Q9JJP2).
T1 sequence: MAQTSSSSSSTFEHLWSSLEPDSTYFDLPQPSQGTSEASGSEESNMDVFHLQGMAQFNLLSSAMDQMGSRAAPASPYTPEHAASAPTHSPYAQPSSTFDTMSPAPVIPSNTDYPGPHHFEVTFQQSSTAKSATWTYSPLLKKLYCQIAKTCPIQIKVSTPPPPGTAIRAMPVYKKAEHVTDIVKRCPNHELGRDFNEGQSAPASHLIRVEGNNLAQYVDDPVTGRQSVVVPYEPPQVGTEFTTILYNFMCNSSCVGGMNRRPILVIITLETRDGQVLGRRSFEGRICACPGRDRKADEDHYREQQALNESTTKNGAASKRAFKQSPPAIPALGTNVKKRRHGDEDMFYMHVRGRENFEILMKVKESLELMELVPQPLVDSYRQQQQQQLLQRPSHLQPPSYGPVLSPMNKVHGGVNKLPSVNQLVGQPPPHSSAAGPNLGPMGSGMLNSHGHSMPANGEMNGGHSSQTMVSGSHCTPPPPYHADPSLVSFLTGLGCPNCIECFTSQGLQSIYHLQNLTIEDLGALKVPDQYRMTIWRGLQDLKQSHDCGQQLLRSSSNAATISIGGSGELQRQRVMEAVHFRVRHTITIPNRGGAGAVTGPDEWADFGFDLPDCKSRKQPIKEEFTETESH
The assay can be described thus: co-IP; pan-p63 or pan-p73 antibody on protein G magnetic beads; tissue lysate of mouse skin; western blot. A general note: A western blot detects proteins with antibodies after separation by electrophoresis.

The target in assay [2] is p63 (endogenous, mouse) (mouse (endogenous in skin and lung tumours)) (UniProt O88898). Described as above.

As to “p63 (endogenous, mouse) (from UniProt O88898-2)”, in assay [1], the binding result is recorded as “binds weakly”.

B1: p73 (endogenous, mouse) (protein, UniProt Q9JJP2 1-631)
chain: T1 sequence
Turning to B1, the binding result in assay [2] is “binds”.
